Measurements taken from paper PMC6775092.
These are yes or no findings as the source states them, for the method shown.

Sequences of proteins named here, by UniProt entry; tags and fusion partners are left off. A change or cut given only in a name is not applied to a line headed by its entry. A line that says so, or that is headed by a name, gives the form on record, which may keep a tag or linker.
MAP1LC3C (microtubule associated proteins 1 light chain 3 C), cytosolic LC3C protein of 126 amino acids (Q9BXW4, form named): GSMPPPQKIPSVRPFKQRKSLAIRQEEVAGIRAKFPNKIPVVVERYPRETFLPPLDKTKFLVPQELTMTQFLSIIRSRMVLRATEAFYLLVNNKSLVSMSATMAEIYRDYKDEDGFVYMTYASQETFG

Target: MAP1LC3C (microtubule associated proteins 1 light chain 3 C), cytosolic LC3C protein of 126 amino acids (human) (UniProt Q9BXW4)
Assay: NMR 15N relaxation (overall rotational autocorrelation time); 510 uM [U-15N] LC3C in 20 mM PIPES, 150 mM NaCl, 0.1 mM EDTA, 2% (v/v) glycerol-d8, 10% D2O, pH 6.0; 800 MHz, 20.0 °C; both purified

For “MAP1LC3C (microtubule associated proteins 1 light chain 3 C), cytosolic LC3C protein of 126 amino acids (from UniProt Q9BXW4 1-126)”, the binding was “no binding (tested: 510 uM)”.
